Laboratory results taken from publication doi:10.1101/2024.10.03.616587.
No constants are given. Whether binding was seen depends on the method and setting. Binding seen in cells or lysates may run through a third protein. Some results given as binding are weak or reduced against the parent protein; the word gives no strength. Sequences can lack the tags named with a protein.

By UniProt entry, the sequences of proteins in these tests, tags left out. Residues count along the entry.
UniProt P22460: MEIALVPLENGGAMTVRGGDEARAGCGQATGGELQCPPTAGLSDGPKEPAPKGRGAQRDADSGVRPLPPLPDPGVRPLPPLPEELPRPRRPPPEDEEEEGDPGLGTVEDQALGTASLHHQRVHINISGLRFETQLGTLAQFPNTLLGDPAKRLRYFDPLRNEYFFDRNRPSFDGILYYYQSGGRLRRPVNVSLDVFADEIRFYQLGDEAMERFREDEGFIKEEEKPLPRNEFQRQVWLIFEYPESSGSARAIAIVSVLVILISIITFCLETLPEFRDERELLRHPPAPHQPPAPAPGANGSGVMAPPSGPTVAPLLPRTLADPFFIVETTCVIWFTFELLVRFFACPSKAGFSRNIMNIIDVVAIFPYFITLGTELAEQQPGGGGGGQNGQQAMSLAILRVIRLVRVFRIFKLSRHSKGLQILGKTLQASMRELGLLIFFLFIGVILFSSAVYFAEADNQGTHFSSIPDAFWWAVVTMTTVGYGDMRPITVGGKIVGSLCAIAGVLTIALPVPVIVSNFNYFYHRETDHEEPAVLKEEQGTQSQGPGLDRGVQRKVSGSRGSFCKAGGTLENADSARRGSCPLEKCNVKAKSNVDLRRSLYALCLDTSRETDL
UniProt Q8N135, residues 20-537: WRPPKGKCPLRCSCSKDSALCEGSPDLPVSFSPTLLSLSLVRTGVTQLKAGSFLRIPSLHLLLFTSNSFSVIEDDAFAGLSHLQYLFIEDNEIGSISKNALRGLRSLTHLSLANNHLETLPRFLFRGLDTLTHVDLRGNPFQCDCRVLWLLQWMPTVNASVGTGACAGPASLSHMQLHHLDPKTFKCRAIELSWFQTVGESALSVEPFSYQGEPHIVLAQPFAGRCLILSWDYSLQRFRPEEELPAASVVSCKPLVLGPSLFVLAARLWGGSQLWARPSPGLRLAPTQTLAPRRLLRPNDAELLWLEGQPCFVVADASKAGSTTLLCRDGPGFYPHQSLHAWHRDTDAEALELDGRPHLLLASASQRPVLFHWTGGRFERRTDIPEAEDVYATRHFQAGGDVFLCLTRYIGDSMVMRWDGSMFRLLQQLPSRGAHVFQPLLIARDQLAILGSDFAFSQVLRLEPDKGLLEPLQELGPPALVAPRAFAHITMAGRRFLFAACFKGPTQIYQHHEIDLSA

Target: KV1.5 channel (UniProt P22460)
Assay: co-IP

Lgi4, FLAG-tagged (from UniProt Q8N135-1 20-537)
binding: binds

B1: Lgi3, FLAG-tagged (protein, UniProt Q8N145 31-548)
chain: KRPPKTPPCPPSCSCTRDTAFCVDSKAVPRNLPSEVISLTLVNAAFSEIQDGAFSHLPLLQFLLLNSNKFTLIGDNAFTGLSHLQYLFIENNDIWALSKFTFRGLKSLTHLSLANNNLQTLPRDIFRPLDILNDLDLRGNSLNCDCKVKWLVEWLAHTNTTVAPIYCASPPRFQEHKVQDLPLREFDCITTDFVLYQTLAFPAVSAEPFLYSSDLYLALAQPGVSACTILKWDYVERQLRDYDRIPAPSAVHCKPMVVDSQLYVVVAQLFGGSYIYHWDPNTTRFTRLQDIDPQRVRKPNDLEAFRIDGDWYFAVADSSKAGATSLYRWHQNGFYSHQALHPWHRDTDLEFVDGEGKPRLIVSSSSQAPVIYQWSRTQKQFVAQGEVTQVPDAQAVKHFRAGRDSYLCLSRYIGDSKILRWEGTRFSEVQALPSRGSLALQPFLVGGRRYLALGSDFSFTQIYQWDEGRQKFVRFQELAVQAPRAFCYMPAGDAQLLLAPSFKGQTLVYRHIVVDLSA
binding: binds
